# Library screening results

Amino acid sequences for entries named in this document (tags omitted).
UniProt E9BF75, entry or part of it: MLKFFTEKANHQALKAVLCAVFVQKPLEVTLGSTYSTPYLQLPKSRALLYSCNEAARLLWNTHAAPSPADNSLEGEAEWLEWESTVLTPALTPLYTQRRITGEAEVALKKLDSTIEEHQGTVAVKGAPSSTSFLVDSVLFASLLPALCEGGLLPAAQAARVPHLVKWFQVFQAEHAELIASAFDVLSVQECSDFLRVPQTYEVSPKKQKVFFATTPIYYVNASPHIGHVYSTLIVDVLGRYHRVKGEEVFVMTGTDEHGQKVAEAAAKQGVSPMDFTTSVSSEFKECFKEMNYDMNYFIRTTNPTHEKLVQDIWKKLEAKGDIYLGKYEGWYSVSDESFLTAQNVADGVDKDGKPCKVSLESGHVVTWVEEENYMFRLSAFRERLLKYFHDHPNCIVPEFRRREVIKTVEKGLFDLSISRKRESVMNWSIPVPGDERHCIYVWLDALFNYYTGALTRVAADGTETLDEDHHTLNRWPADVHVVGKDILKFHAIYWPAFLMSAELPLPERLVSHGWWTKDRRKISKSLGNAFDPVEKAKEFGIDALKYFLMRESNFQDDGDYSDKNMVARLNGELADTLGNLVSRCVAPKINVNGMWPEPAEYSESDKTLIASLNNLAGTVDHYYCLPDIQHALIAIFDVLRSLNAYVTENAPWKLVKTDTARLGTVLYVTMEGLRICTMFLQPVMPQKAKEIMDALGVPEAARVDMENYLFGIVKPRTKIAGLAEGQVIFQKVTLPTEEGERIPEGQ

Mtb heat-shock: 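Assay on Mycobacterium tuberculosis, filed only as a heat shock assay from Cornell; the read-out is not stated. The concentration is filed as 10 mM, unlikely as a test dose, so the dose is not known. Direction is inferred from retests: higher values go with stronger inhibition. Size under these conditions: about 69,000 compounds, about 930 of them at 50% or above in at least one test.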
LdMetRS: 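Methionyl-tRNA synthetase (putative), Leishmania donovani (UniProt E9BF75). Primary screen of methionyl-tRNA synthetase; the read-out is not stated. The test concentration is not given. The values are filed as inhibition. Size under these conditions: about 68,000 compounds, about 24 of them at 50% or above in at least one test.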
Mtb growth Cornell: 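Whole-cell assay for inhibitors of Mycobacterium tuberculosis growth, labelled Cornell in the record; the read-out is not stated. The concentration is filed as 10 mM, unlikely as a test dose, so the dose is not known. The record gives no direction; compounds strong in two other growth screens of this library score well above the rest, so higher reads as stronger inhibition. About 53,000 compounds were tested under these conditions; 1.7% (about 900) showed 50% or more at least once.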

Results are percentages, as filed.
The record does not define 0% and 100%; most values in the screen are far below 50% and negative numbers occur (in some assays of this library far below -100).
Compounds were drawn at random from those tested, without regard to their results.

With CCc1cnc(C)nc1NC1CC(=O)N(CC)C1 (centres unmarked) the screen gave Mtb heat-shock: 1.136%; LdMetRS: 5.602%; Mtb growth Cornell: 2.547%. For CNc1nc(C(=O)N2CCCC(CO)(CCCOC)C2)cs1 (centres unmarked) the result was Mtb heat-shock: -3.932%; LdMetRS: 18.73%; Mtb growth Cornell: -9.422%. For O=C(O)c1cc2c(nc1-c1ccoc1)CCN(CC1CCOC1)CC2 (centres unmarked) the result was LdMetRS: 14.29%. For CCc1cnc(C)nc1NCCN1CCCC(C(N)=O)C1 (centres unmarked) the result was Mtb heat-shock: -22.15%; LdMetRS: 12.9%; Mtb growth Cornell: 5.952%.

C[C@]1(O)CN(Cc2cccc(C(=O)O)c2)CC[C@@H]1Oc1cccc(F)c1 gave Mtb heat-shock: -19.78%; LdMetRS: 13.88%. Cc1cnc(NC(=O)NC(CCO)c2cccs2)s1 (centres unmarked) read Mtb heat-shock: -1.443%; LdMetRS: 23.2%. Cn1cc(N2CC3(CCN(Cc4ccsc4)CC3)OCC2=O)cn1 read LdMetRS: 0%. Cc1cc(=O)n2nc(-c3cccs3)nc2n1CC(=O)NC(C)C gave Mtb heat-shock: 15.33%; LdMetRS: 12.83%; Mtb growth Cornell: 14.73%.

For COC(=O)CCC(=O)N1CCC2(CN(Cc3ccc(Cl)cc3)C2)C1 the result was Mtb heat-shock: -17.78%; LdMetRS: 9.645%. Result for O=C(O)c1csc(S(=O)(=O)N2CCCc3cccc(OC(F)F)c32)c1 was Mtb heat-shock: -31.55%; LdMetRS: 14.29%. Result for O=C(O)C(F)(F)F.[H][C@@]12OCCN(c3ncccn3)[C@@]1([H])CC[C@H]2OCC(=O)N(C)C was Mtb heat-shock: -12.14%; Mtb growth Cornell: -5.156%. CN(C)c1ccc(CC2CCCN(c3cnccn3)C2)nn1 (centres unmarked) read Mtb heat-shock: 14.52%; LdMetRS: 13.12%; Mtb growth Cornell: -2.145%.

With Cc1ccc(N2CCCC(NCc3cccc4c3OCCO4)C2)nn1 (centres unmarked) the screen gave Mtb heat-shock: -4.238%; LdMetRS: 12.42%; Mtb growth Cornell: 12.17%. With CC(C)N(C)Cc1cncc2c1CCN(C(=O)c1cccc(C#N)c1)C2.Cl.Cl the screen gave Mtb heat-shock: -38.37%; Mtb growth Cornell: 14.56%. Result for CC(=O)N1CCC2(CC1)C(=O)N(c1cccnc1)c1ccc(F)cc12 was Mtb heat-shock: 7.515%; LdMetRS: 11.5%; Mtb growth Cornell: 1.966%. For CNc1nc(CNC(=O)Nc2ccc(OC(C)C)cc2F)cs1 the result was Mtb heat-shock: 3.28%; LdMetRS: 18.98%.

CC(=O)N1CCN(C(=O)CN2CCc3c(ncn3C3CC3)C2)CC1 gave Mtb heat-shock: 8.434%; LdMetRS: 8.333%. Result for Cc1cccc(S(=O)(=O)NCC(C)N2CCN(C)CC2)c1Cl (centres unmarked) was Mtb heat-shock: -41.97%; LdMetRS: 11.02%; Mtb growth Cornell: 18.11%. For CCN1C(=O)CO[C@@H]2CN(C(=O)C3CCOCC3)C[C@H]21 the result was LdMetRS: 12.38%. CN1CCC(c2[nH]ncc2S(C)(=O)=O)CC1 read Mtb heat-shock: -8.463%; LdMetRS: 9.449%; Mtb growth Cornell: 6.792%.

Result for C=C(C)CN(CC)C(=O)c1cc(Cl)ccc1NS(C)(=O)=O was Mtb heat-shock: 2.362%; LdMetRS: 19.15%; Mtb growth Cornell: 13.37%. CC(C)CN1CCCC12CCN(c1nncs1)C2.O=C(O)C(F)(F)F (centres unmarked) read Mtb heat-shock: -7.431%; Mtb growth Cornell: 31.12%. Cc1ccc(-c2noc([C@@H]3C[C@H](NC(=O)CC(C)(C)C)CN3C)n2)cc1 gave Mtb heat-shock: -3.176%; LdMetRS: 12.78%; Mtb growth Cornell: -9.733%. With CC(C)CN1C[C@@H]2OCC(=O)N(c3ccccc3)[C@@H]2C1 the screen gave LdMetRS: 9.023%.

With CN1CCN(C)C(CNC(=O)N(C)Cc2ccc(Cl)c(F)c2)C1 (centres unmarked) the screen gave Mtb heat-shock: -12.01%; LdMetRS: 10.3%; Mtb growth Cornell: 12.24%.

Data taken from ChEMBL document CHEMBL3988442, “University of Dundee, Small-Polar-MMV Screening Library” (2021).